Laboratory results published in US11135246B2, “Peptides and combination of peptides for use in immunotherapy against leukemias and other cancers” (Immatics Biotechnologies GmbH, priority 2017, dated 2021).

System: HLA molecules of primary tumor samples
Test: Identification of tumor associated peptides presented on the cell surface (HLA immune precipitation, LC-MS)
Parameters: species or system human
Settings: for Peptide Presentation on cancer entities: entities on which the peptide was presented, CLL = chronic lymphocytic leukemia, AML = acute myeloid leukemia, CML = Chronic myeloid leukemia; for Peptide Presentation on tumor types: tumor entities on which the peptide was found presented (Table 8b)

| Substance | presentation on cancer entities (Table 8a) (CLL, AML, CML samples) | presentation on cancer entities (Table 8b) (other cancer entities) | Peptide Presentation on cancer entities | Peptide Presentation on tumor types |
| --- | --- | --- | --- | --- |
| YINPAKLTPY (listed as Homo sapiens) [Seq ID No 3] | AML, CML | GBC, MEL, NHL, NSCLC and UBC | – | – |
| 228 (SPRITFPSL; listed as Homo sapiens) [compound 228] | – | – | CLL | – |
| 169 (EENGEVKEL; listed as Homo sapiens) [compound 169] | – | – | CLL | NHL |
| 176 (AENAVSNLSF; listed as Homo sapiens) [compound 176] | – | – | CLL | NHL |
| 205 (FLINTNSEL; listed as Homo sapiens) [compound 205] | – | – | CLL | BRCA, CCC, CRC, GBC, GBM, GC, GEJC, HCC, HNSCC, MEL, NHL, NSCLCadeno, NSCLCother, NSCLCsquam, OC, OSCAR, PACA, PRCA, RCC, SCLC, UBC, UEC |
| 76 (KAFSWSSAF; listed as Homo sapiens) [compound 76] | – | – | CLL | BRCA, GBM, NHL, NSCLCsquam, PRCA, SCLC, UBC |
| 190 (HVDQDLTTY; listed as Homo sapiens) [compound 190] | – | – | AML | GBM, GC, NSCLCadeno, NSCLCother, NSCLCsquam, OC, PACA, PRCA |
| 75 (RFYLLTEHF; listed as Homo sapiens) [compound 75] | – | – | AML | CRC, GBC, HCC, NHL, NSCLCadeno, NSCLCsquam, OSCAR, SCLC |
| 183 (GESQDSTTAL; listed as Homo sapiens) [compound 183] | – | – | CLL | CCC, HNSCC, NHL, NSCLCadeno, NSCLCother, NSCLCsquam, OC |
| 153 (KEFEQVPGHL; listed as Homo sapiens) [compound 153] | – | – | CLL | – |
| 152 (AELLAKELY; listed as Homo sapiens) [compound 152] | – | – | CLL | CCC, CRC, NHL, NSCLCsquam, UEC |
| 149 (SEKETVAYF; listed as Homo sapiens) [compound 149] | – | – | CLL | MEL, NHL |
| 143 (YEYDLKWEF; listed as Homo sapiens) [compound 143] | – | – | AML | NHL |
| 46 (RVFPSPMRI; listed as Homo sapiens) [compound 46] | – | – | CLL | MEL, NHL, NSCLCsquam, OSCAR, SCLC |
| 193 (LTDSEKGNSY; listed as Homo sapiens) [compound 193] | – | – | CLL | GBC, GEJC, HCC, HNSCC, MEL, NHL, NSCLCadeno, NSCLCsquam, OC, PRCA |
| 112 (APLLRHWEL; listed as Homo sapiens) [compound 112] | – | – | CLL | BRCA, CCC, CRC, GBC, HCC, HNSCC, NHL, NSCLCadeno, NSCLCother, NSCLCsquam, OC, OSCAR, PACA, SCLC |
| 111 (VTLIKYQEL; listed as Homo sapiens) [compound 111] | – | – | CLL | – |
| 26 (SLYVQQLKI; listed as Homo sapiens) [compound 26] | – | – | CLL | HNSCC, NHL, OC, PRCA |
| 174 (TDKSFPNAY; listed as Homo sapiens) [compound 174] | – | – | CLL | PRCA, SCLC |
| 203 (FLLPKVQSI; listed as Homo sapiens) [compound 203] | – | – | CLL | BRCA, HCC, MEL, NHL, NSCLCadeno, NSCLCother, NSCLCsquam, OC, OSCAR |
| 47 (SVLDLSVHK; listed as Homo sapiens) [compound 47] | – | – | CLL | CCC, HCC, NHL, OSCAR, PRCA, SCLC, UEC |
| 245 (SPLSHHSQL; listed as Homo sapiens) [compound 245] | – | – | CLL | GC, NHL, NSCLCadeno, NSCLCother, NSCLCsquam, OC, OSCAR |
